Data from PubChem BioAssay AID493014 (National Center for Advancing Translational Sciences (NCATS), 2011).
The list shows a part of the results. These are further read-outs of the screen, such as a control signal, another cell line or another target. No call is given for them. Compounds called inactive in the main read-out are mostly missing here. The note in brackets gives the kind of curve behind each potency; many fits are weak.

Assay: qHTS Assay to Find Inhibitors of Chronic Active B-Cell Receptor Signaling
Conditions: ABC-DLBCL IkBa-CBG/CBR reporter, luminescence ratio (green luciferase fused to IkBa over red control in TMD8 lymphoma cells), 4 h
Summary of the method: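 Doxycycline induced both beetle luciferases in TMD8 lymphoma cells; IKK-driven degradation limits the IkappaBalpha-fused green signal, while red luminescence normalises for cell number and nonspecific effects. Compounds tested up to 46 uM, 4 hrs.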

[1] = measured here: CBR red luminescence, cell number
[2] = measured here: IkBa-CBG green luminescence

With `COC(=O)c1sccc1OCc1cccc(OC)c1` the AC50 [1] was 4.47 µM [rising, partial curve].
In the case of `Cc1ccc(NC(=O)N2CCc3ccccc3C2)cc1`, the AC50 [1] is reported as 23.1 µM [falling, partial curve, poor fit].
With `O=C(CCl)c1ccc2c(c1)CCN2C(=O)C1CC1` the AC50 [1] was 35.5 µM [falling, single point].
For `Cc1ccc(S(=O)(=O)N(CC(=O)N2CCOCC2)C2CCCCC2)cc1`, the AC50 [1] was 5.8 µM [falling, single point].
In the case of `CCCCN(CC)C(=O)CSc1nc2ccccc2c(=O)n1Cc1ccco1`, the AC50 [1] is reported as 3.55 µM [falling, full curve, poor fit].
For `CCC(=O)Nc1cccc(NC(=S)NC(=O)c2ccccc2)c1`, the AC50 [1] was 20.6 µM [falling, partial curve, poor fit].
With `O=C(Oc1ccccc1)c1cccnc1Oc1ccccc1` the AC50 [1] was 35.5 µM [rising, single point].
With `Cc1ccc(NC(=S)NC(=O)c2ccc(F)cc2)cc1S(=O)(=O)Nc1cccc(Cl)c1` the AC50 [1] was 35.5 µM [falling, single point] and the AC50 [2] was 2.51 µM [falling, partial curve, poor fit].
In the case of `COc1cccc(NC2=Nc3cccc4cccc2c34)c1`, the AC50 [1] is reported as 16.4 µM [falling, partial curve].
For `CC1C(=O)CC(c2ccccc2)N(C)C1c1ccccc1` (configuration not stated), the AC50 [1] was 0.58 µM [rising, full curve, poor fit].
For `NNC(=O)c1cccc(COc2ccccc2Br)c1`, the AC50 [1] was 35.5 µM [falling, single point].
For `O=C(Nc1nc2c(s1)CCCC2)c1nn(Cc2ccccc2)c(=O)c2ccccc12`, the AC50 [1] was 8.2 µM [rising, partial curve, poor fit].
For `COc1cc(C=C(c2nc3ccccc3s2)c2nc3ccccc3s2)cc(OC)c1O`, the AC50 [1] was 11.6 µM [falling, partial curve, poor fit].
For `Cn1c(=O)[nH]c(=O)c2c1nc(SCC(O)CO)n2CCCc1ccccc1` (configuration not stated), the AC50 [1] was 35.5 µM [rising, single point].
In the case of `COc1ccccc1NC(=O)Nc1nc(CC(=O)NC2CCCC2)cs1`, the AC50 [1] is reported as 0.58 µM [rising, full curve].
With `COc1ccccc1NC(=O)C(=O)Nc1ccc2c(c1)N(C(=O)C1CC1)CCC2` the AC50 [1] was 1.3 µM [falling, partial curve, poor fit].
For `COc1ccc(N2C(=O)N3[C@H](c4cccc(C)c4)[C@@H]4C(=O)N(Cc5ccccc5)C(=O)[C@@H]4[C@]3(Cc3ccccc3)C2=O)cc1`, the AC50 [1] was 2 µM [falling, full curve, poor fit] and the AC50 [2] was 3.16 µM [rising, full curve, poor fit].
For `Cc1cc(C)c(S(=O)(=O)Nc2cc(C)on2)c(C)c1`, the AC50 [1] was 0.562 µM [rising, full curve].
In the case of `NC(=O)/C(N=Nc1ccccc1)=N/Nc1ccccc1`, the AC50 [1] is reported as 32.6 µM [falling, single point].
In the case of `COc1ccc(-c2csc(N3C(=N)SCC3=O)n2)cc1`, the AC50 [1] is reported as 0.708 µM [rising, full curve, poor fit].
In the case of `COC(=O)c1sccc1-c1ccc(/C=N/OC(=O)c2ccccc2)o1`, the AC50 [1] is reported as 15.8 µM [falling, partial curve, poor fit].
With `Cc1cc(C)c2cc(CN(Cc3ccco3)C(=S)NCC3CCCO3)c(=O)[nH]c2c1` (configuration not stated) the AC50 [1] was 14.1 µM [falling, single point] and the AC50 [2] was 14.1 µM [rising, partial curve, poor fit].
In the case of `COc1cccc(OCC(O)CN2CCN(CCN3C(=O)c4cccc5cccc(c45)C3=O)CC2)c1` (configuration not stated), the AC50 [1] is reported as 17.8 µM [falling, single point].
For `COc1ccccc1Nc1nc(N)nc(-c2oc3ccccc3c2C)n1`, the AC50 [1] was 0.82 µM [falling, full curve, poor fit].
In the case of `O=C(Nc1ccc(N2CCOCC2)cc1)c1cc(F)c(F)cc1Cl`, the AC50 [1] is reported as 32.6 µM [rising, partial curve, poor fit].
With `O=C(NC1C=CS(=O)(=O)C1)c1sc2ccccc2c1Cl` (configuration not stated) the AC50 [1] was 7.08 µM [falling, partial curve].
With `O=[N+]([O-])c1c(Nc2cccc(O)c2)cc(Cl)c2nonc12` the AC50 [1] was 35.5 µM [falling, single point].
For `COc1ccccc1Oc1ccc(N/C=C/C(=O)c2ccco2)cc1`, the AC50 [1] was 35.5 µM [falling, single point].
With `COCCn1c(SCC(=O)N2CCC(C)CC2)nc2c([nH]c3ccccc32)c1=O` the AC50 [1] was 1.41 µM [falling, partial curve, poor fit].
In the case of `CCN(CC)C(=O)C(=O)Nc1cc(C(F)(F)F)ccc1Cl`, the AC50 [1] is reported as 2.91 µM [rising, single point].
In the case of `CCCN(C(=O)c1ccccc1N)c1c(C)n(C)n(-c2ccccc2)c1=O`, the AC50 [1] is reported as 11.2 µM [rising, partial curve, poor fit].
In the case of `CN(C)c1ccc(NC(=O)c2ccc([N+](=O)[O-])cc2Cl)cc1`, the AC50 [1] is reported as 1.46 µM [rising, full curve].
With `CC(=O)c1ccc(-c2csc(N3CCC(C(N)=O)CC3)n2)cc1` the AC50 [1] was 7.31 µM [rising, partial curve].
With `O=c1cc(-c2ccc([N+](=O)[O-])cc2)nc2cc(-c3ccc(Cl)cc3)[nH]n12` the AC50 [1] was 0.461 µM [falling, full curve].
With `COc1ccc(NC(=O)c2ccco2)cc1NC(=O)c1cc(Br)ccc1Cl` the AC50 [1] was 2.24 µM [rising, partial curve].
With `O=C(O)c1ccccc1CSc1nc2ccccc2s1` the AC50 [1] was 35.5 µM [falling, single point].
For `FC(F)(F)c1cc(NC2CCCCC2)ccn1`, the AC50 [1] was 10 µM [falling, partial curve, poor fit].
In the case of `CCCOc1ccc(CC(=O)N/N=C\c2ccc(F)cc2)cc1`, the AC50 [1] is reported as 35.5 µM [rising, single point].
For `COc1ccc(Nc2nc(N)c3ccccc3n2)c(OC)c1`, the AC50 [1] was 8.91 µM [falling, partial curve].
With `Cc1cccc2cc3c(N)c(C(=O)N4CCc5ccccc54)sc3nc12` the AC50 [1] was 2.06 µM [falling, full curve].
With `O=C(Nc1ccc2nc(-c3cccnc3)[nH]c2c1)C12CC3CC(CC(C3)C1)C2` the AC50 [1] was 32.6 µM [falling, partial curve, poor fit].
For `COc1ccc(S(=O)(=O)N2CCCC2CNC(=O)C(=O)Nc2ccc(F)cc2)cc1` (configuration not stated), the AC50 [1] was 8.2 µM [falling, partial curve].
In the case of `Fc1ccc(-c2cn3cc(C(F)(F)F)cc(Cl)c3n2)cc1`, the AC50 [1] is reported as 0.794 µM [rising, full curve, poor fit].
With `Nc1nc(Nc2ccc(Cl)cc2)nc2ccccc12` the AC50 [1] was 16.4 µM [falling, partial curve, poor fit].
With `COCC(C)n1c(C)cc(C(=O)CN2c3cccc4cccc(c34)S2(=O)=O)c1C` (configuration not stated) the AC50 [1] was 20.6 µM [rising, single point].
With `CCCn1c(=O)c(C(=O)Nc2cnccn2)c(O)c2ccccc21` the AC50 [1] was 32.6 µM [rising, single point].
For `COc1ccc(S(=O)(=O)N(CC(=O)Nc2ccc(C)cc2)c2ccc(C)cc2)cc1OC`, the AC50 [1] was 4.47 µM [falling, single point] and the AC50 [2] was 4.47 µM [rising, partial curve, poor fit].
With `O=[N+]([O-])c1ccc(Nc2ccc(F)cc2)cc1` the AC50 [1] was 0.1 µM [rising, full curve, poor fit].
For `Nc1nc(SCc2ccccc2)[nH]c(=O)c1-c1ccccc1`, the AC50 [1] was 29.1 µM [falling, single point].
For `COC(c1ccccc1)c1nnc(CCC(=O)N(C)C(C2CC2)C2CC2)o1` (configuration not stated), the AC50 [1] was 8.91 µM [rising, partial curve].
For `CC1=NN(C(=O)c2ccccc2C)C(O)(c2ccc(Cl)cc2)C1` (configuration not stated), the AC50 [1] was 15.8 µM [falling, partial curve, poor fit].
With `O=C(O)CCc1ccc(-c2ccccc2)n1-c1cccc(C(=O)O)c1` the AC50 [1] was 35.5 µM [falling, single point].
For `COCCNC(=O)c1ccccc1NC(=O)C1COc2ccccc2O1` (configuration not stated), the AC50 [1] was 3.55 µM [rising, full curve, poor fit].
With `COc1ccc([C@@H]2[C@@H]3C(=O)N(C(C)(C)C)C(=O)[C@@H]3[C@]3(Cc4ccc(Cl)cc4)C(=O)N(c4ccc(Br)cc4)C(=O)N23)cc1` the AC50 [1] was 4.47 µM [falling, full curve, poor fit].
In the case of `CCCCC(=O)Nc1cc(NC(=O)CC)ccc1Cl`, the AC50 [1] is reported as 32.6 µM [rising, partial curve, poor fit].
For `Cc1ccccc1NC(=O)C1CCCN(C(=O)Nc2ccc(F)cc2)C1` (configuration not stated), the AC50 [1] was 5.62 µM [rising, partial curve, poor fit].
With `C/C(=N/NC(=O)c1cnccn1)c1ccncc1` the AC50 [1] was 20 µM [falling, single point].
With `CC(=O)NS(=O)(=O)c1ccc(NS(=O)(=O)c2ccccc2[N+](=O)[O-])cc1` the AC50 [1] was 35.5 µM [rising, single point].
With `Cc1ccc(NC(=O)C(=O)NCC2CCCN2S(=O)(=O)c2cccs2)cc1C` (configuration not stated) the AC50 [2] was 20.6 µM [falling, partial curve, poor fit].
In the case of `CCC(C)NC(=S)Nc1ccc(F)cc1` (configuration not stated), the AC50 [1] is reported as 0.891 µM [rising, full curve, poor fit].
With `C/C(=N\Nc1nc(-c2ccccn2)nc2ccccc12)c1ccc(F)cc1` the AC50 [1] was 35.5 µM [rising, single point].
With `CC(=O)NC(Cc1ccccc1F)C(=O)NC1CCN(C(=O)Nc2ccc(C)cc2)CC1` (configuration not stated) the AC50 [1] was 20 µM [rising, partial curve, poor fit].
With `COc1ccc(CC(=O)NCC2CCCN(Cc3ccc(F)c(OC)c3)C2)cc1` (configuration not stated) the AC50 [1] was 8.91 µM [rising, partial curve, poor fit].
